Results published in patent publication US20200247841 (published 2020).

Test: general procedure: Fmoc solid-phase peptide synthesis; 2-chlorotrityl chloride (CTC) resin, substitution 1.22 mmol/g; HBTU/HOBt/DIPEA, with catalytic Copper(II) chloride/Magnesium chloride
Settings: whole synthesis

## Icatibant
Scale 35 mmol
  crude purity (method not given): 76.8%
  crude yield: 68%
Scale of the general procedure 10 g resin, run 1
  crude purity (method not given): 68.69%
Scale of the general procedure 10 g resin, run 2
  crude purity (method not given): 67.08%
Scale of the general procedure 10 g resin, run 3
  crude purity (method not given): 72.38%
Scale of the general procedure 10 g resin, run 4
  crude purity (method not given): around 77.92%
Scale of the general procedure 10 g resin, run 5
  crude purity (method not given): 64.97%
Scale of the general procedure 10 g resin, run 6
  crude purity (method not given): 74.54%
